Measurements from PubChem BioAssay AID493014 (National Center for Advancing Translational Sciences (NCATS), 2011).
This is one part of the list. These are further read-outs of the screen, such as a control signal, another cell line or another target. No call is given for them. The list favours compounds with an active or inconclusive main result. The note in brackets gives the kind of curve behind each potency; many fits are weak.

Experiment: qHTS Assay to Find Inhibitors of Chronic Active B-Cell Receptor Signaling
Details: ABC-DLBCL IkBa-CBG/CBR reporter, luminescence ratio (green luciferase fused to IkBa over red control in TMD8 lymphoma cells), 4 h
How it was run: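 TMD8 ABC-DLBCL cells carrying doxycycline-inducible green luciferase fused to IkappaBalpha plus unfused red luciferase were exposed to compounds (up to 46 uM) for 4 hrs at 37C. Activity came from the overlap-corrected green/red luminescence ratio.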

[1] = measured here: CBR red luminescence, cell number
[2] = measured here: IkBa-CBG green luminescence

Row | SMILES | AC50 [1] | AC50 [2]
1 | O=C(O)CCCCCN1C(=O)CSC1=S | 0.631 µM [falling, full curve] | 
2 | CC(C)(C)C(=O)NNC(=O)c1cnccn1 | 11.2 µM [rising, single point] | 
3 | NC(=O)c1nc(C2CCCCC2)nc2c1[nH]c(=O)n2-c1ccc(F)cc1 | 3.16 µM [falling, partial curve, poor fit] | 
4 | O=C(Nc1nnc(S(=O)(=O)N2CCOCC2)s1)c1ccc(F)cc1 | 1.58 µM [rising, full curve] | 
5 | O=C(CNCc1ccc(Cl)cc1)Nc1ccc(C(=O)N2CCCCCC2)cc1 | 11.2 µM [falling, partial curve] | 
6 | COc1ccccc1OC(=O)c1cc2ccccc2oc1=O | 12.6 µM [rising, partial curve, poor fit] | 
7 | O=C(CNS(=O)(=O)c1ccccc1)NCc1ccccn1 | 5.8 µM [falling, full curve] | 
8 | CCn1c2ccccc2c2cc(NC(=O)COC(=O)c3ccc(O)cc3)ccc21 | 1.84 µM [rising, partial curve, poor fit] | 
9 | O=C(/C=C/c1ccc2c(c1)OCO2)NCc1ccco1 | 20.6 µM [falling, single point] | 
10 | COc1cccc(NC(=O)COC(=O)CNC(=O)C2CCCCC2)c1 | 14.6 µM [rising, partial curve, poor fit] | 
11 | Cc1c(F)cccc1NS(=O)(=O)c1ccc2c(c1)c(C)cc(=O)n2C | 14.1 µM [rising, single point] | 
12 | CC(C)(C)c1ccc(-c2nnc(SCCC#N)n2C2CCCC2)cc1 | 29.1 µM [falling, single point] | 
13 | COc1ccc(C(=O)Nc2n[nH]c(-c3ccncc3)n2)cc1 | 7.08 µM [falling, full curve] | 
14 | O=C(NCC(c1ccco1)N1CCCC1)c1cccc(S(=O)(=O)Nc2ccc(Br)cc2)c1 (stereo unspecified) | 14.1 µM [falling, partial curve, poor fit] | 
15 | Cc1cc(C2=NNC(=Nc3ccccc3)SC2)c(C)n1C | 25.1 µM [falling, single point] | 
16 | CCN(C(=O)COC(=O)c1oc2ccc(OC)cc2c1C)C1CCS(=O)(=O)C1 (stereo unspecified) | 3.66 µM [falling, partial curve, poor fit] | 
17 | CN(CC(=O)Nc1ccccc1C(F)(F)F)C(=O)CCc1nc2sc3c(c2c(=O)[nH]1)CCCC3 | 5.62 µM [rising, partial curve, poor fit] | 
18 | COc1cc(CC(=O)OCC(=O)c2c[nH]c3ccccc23)cc(OC)c1OC |  | 18.4 µM [falling, single point]
19 | COC(=O)c1c(NC(=O)COC(=O)[C@@H](NS(=O)(=O)c2ccc(C)cc2)C(C)C)sc2c1CCC2 | 2.31 µM [falling, full curve] | 
20 | COc1cccc(C(=O)Oc2c(Br)cc(Br)cc2/C=N/NC(=O)c2cc(C)[nH]n2)c1 | 3.98 µM [falling, full curve, poor fit] | 
21 | O=C(CCCC(=O)N(c1ccc(F)cc1)C(C(=O)NC1CCCC1)c1ccc(O)cc1)Nc1ccccn1 (stereo unspecified) | 17.8 µM [falling, partial curve] | 
22 | O=C(Nc1cc(S(=O)(=O)N2CCOCC2)ccc1Cl)C1CCC1 | 29.1 µM [falling, single point] | 

Row | SMILES | AC50 [1] | AC50 [2]
23 | c1ccc(-c2cn3cccnc3n2)cc1 | 4.61 µM [rising, full curve, poor fit] | 
24 | COc1ccc(N=Cc2c(O)c3ccccc3n2C(C)=O)cc1 | 0.891 µM [falling, partial curve] | 
25 | COc1ccc(-c2nn(-c3ccccc3)cc2/C=N/N2C(=O)CSC2=S)cc1 | 0.517 µM [rising, full curve, poor fit] | 
26 | CCc1nc(SCC(=O)Nc2cc(OC)ccc2OC)c2c(C)c(C)sc2n1 | 7.94 µM [rising, partial curve, poor fit] | 
27 | CCCCc1nnc(NC(=O)CCS(=O)(=O)c2ccc(C)cc2)s1 | 7.31 µM [falling, partial curve] | 
28 | O=S(=O)(Nc1nc2ccccc2s1)c1ccc(Cl)s1 | 0.82 µM [rising, full curve, poor fit] | 
29 | COc1ccc(CC(=O)Oc2ccccc2C)cc1 | 31.6 µM [rising, single point] | 
30 | Cc1ccc(C2=NN(C(=O)CCl)C(c3ccco3)C2)o1 (stereo unspecified) | 0.501 µM [falling, full curve, poor fit] | 
31 | COc1cccc(N2C(=O)C(c3ccccc3)=C(c3nc4ccccc4s3)C2NC(C)=O)c1 (stereo unspecified) | 18.4 µM [falling, single point] | 
32 | CN1/C(=C\C(=O)c2cccnc2)C(C)(C)c2ccccc21 | 5.8 µM [falling, partial curve, poor fit] | 
33 | CCOc1cc(/C=N/NC(=O)CCn2nnc3ccccc32)ccc1O | 14.1 µM [falling, partial curve, poor fit] | 
34 | Cc1ccc(NC(=O)CSc2nc(=O)cc(N)n2CCc2ccccc2)cc1 | 5.62 µM [rising, single point] | 
35 | CC1(C)CC(=O)C(/C=N/n2cnc3ccccc3c2=O)=C(O)C1 | 18.4 µM [rising, single point] | 
36 | COC(=O)Cn1c(=NC(=O)c2ccc(Cl)s2)sc2cc(C)ccc21 | 23.1 µM [falling, partial curve] | 
37 | Cc1ccc(/C=N/N2C(=O)c3ccccc3NC2c2ccc(C)cc2)cc1 (stereo unspecified) | 4.11 µM [falling, full curve] | 
38 | CC(C)(C)c1ccc(S(=O)(=O)N2CCC(O)(c3ccc(Cl)cc3)CC2)cc1 | 17.8 µM [falling, single point] | 
39 | CCOC(=O)c1c(NC(=O)C(=O)N/N=C/c2ccc(O)c(OC)c2)sc2c1CCCCC2 | 18.4 µM [rising, single point] | 
40 | COc1ccc(/C=N/Nc2cc(C)nc3ccc(Br)cc23)cc1 | 35.5 µM [falling, single point] | 
41 | COc1ccc(NC(=O)c2ccc(S(=O)(=O)N(C)c3ccccc3)cc2)cn1 | 35.5 µM [falling, single point] | 
42 | CCCCOc1ccccc1NC(=O)c1scc2c1OCCO2 |  | 15.8 µM [rising, partial curve, poor fit]
43 | Cc1ccc2[nH]c(=O)c(COC(=O)C3CCCCC3)cc2c1 | 15.8 µM [rising, single point] | 
44 | CC1CC(C)CN(C(=O)CSCC(=O)Nc2nc(-c3cccs3)cs2)C1 (stereo unspecified) | 18.4 µM [falling, single point] | 

Reformatted comma-delimited: part of the list above.
Row,SMILES,AC50 [1],AC50 [2]
25,COc1ccc(-c2nn(-c3ccccc3)cc2/C=N/N2C(=O)CSC2=S)cc1,"0.517 µM [rising, full curve, poor fit]",
26,CCc1nc(SCC(=O)Nc2cc(OC)ccc2OC)c2c(C)c(C)sc2n1,"7.94 µM [rising, partial curve, poor fit]",
36,COC(=O)Cn1c(=NC(=O)c2ccc(Cl)s2)sc2cc(C)ccc21,"23.1 µM [falling, partial curve]",

The listing continues:

Row | SMILES | AC50 [1] | AC50 [2]
45 | Nc1ccc(C(=O)O)c(O)c1 | 0.00411 µM [rising, full curve, poor fit] | 
46 | NS(=O)(=O)c1ccc(CCNCc2cccnc2)cc1 | 5.62 µM [rising, partial curve, poor fit] | 
47 | O=c1c(Cl)c(N2CCOCC2)cnn1-c1nc2ccccc2[nH]1 | 11.2 µM [falling, partial curve] | 
48 | C=CCOc1c(CNn2cn[nH]c2=S)cccc1OC | 35.5 µM [rising, single point] | 
49 | O/N=C(/c1ccccc1)c1cc2cc(Br)cc(Br)c2o1 | 10 µM [rising, single point] | 
50 | Cc1ccc(/C=C/c2nc3ccccc3[nH]2)o1 | 10 µM [falling, partial curve, poor fit] | 
51 | O=C(CN1C(=O)CCC1=O)Nc1nc(-c2ccc(Cl)s2)cs1 | 1.16 µM [falling, partial curve, poor fit] | 
52 | FC(F)C(F)(F)C(F)(F)C(F)(F)c1cc(-c2ccccc2)n[nH]1 | 4.61 µM [rising, full curve] | 
53 | C[C@H](CO)N1C[C@H](C)[C@@H](CN(C)Cc2ccc(-c3ccccc3)cc2)Oc2c(NS(=O)(=O)c3ccc(F)cc3)cccc2C1=O | 8.2 µM [falling, partial curve, poor fit] | 
54 | COC(=O)c1sccc1NC(=O)COc1ccc(Cl)cc1 | 5.8 µM [falling, partial curve] | 
55 | Cc1cs/c(=N/C(=S)Nc2ccccc2)n1C | 16.4 µM [falling, single point] | 
56 | Cc1ccccc1Oc1cc(NC(=O)CCCn2nc(C)c([N+](=O)[O-])c2C)cc([N+](=O)[O-])c1 | 18.4 µM [falling, single point] | 
57 | Nc1[nH]nc2nc3ccccc3cc12 | 10 µM [falling, partial curve, poor fit] | 
58 | O=C(NCCS(=O)(=O)NCc1ccc(F)cc1)c1ccccc1 | 0.651 µM [rising, full curve, poor fit] | 
59 | CCOc1ccc(NS(=O)(=O)c2ccc3[nH]cc(C(=O)NCC4CCCO4)c(=O)c3c2)cc1 (stereo unspecified) | 3.98 µM [falling, partial curve, poor fit] | 
60 | O=C(O)c1ccc(NC2=C/C(=N/S(=O)(=O)c3ccccc3)c3ccccc3C2=O)cc1 | 5.62 µM [falling, full curve] | 5.62 µM [rising, full curve, poor fit]
61 | COc1cc(SC)ccc1C(=O)Nc1ccc2c(c1)OCO2 | 35.5 µM [falling, single point] | 
62 | CCOC(=O)N1CCN(Cc2nc(N)nc(Nc3ccc(OC)cc3)n2)CC1 | 8.2 µM [rising, partial curve] | 
63 | Cc1ccc(Cn2c(=S)[nH]c3ccc(N4CCOCC4)cc3c2=O)o1 | 0.731 µM [falling, full curve, poor fit] | 
64 | Cc1cccc(Cc2c(C)nc3nc(SCC(=O)NCc4ccco4)nn3c2C)c1 | 17.8 µM [falling, single point] | 
65 | COc1ccc(Br)cc1CNc1ccccc1 | 2.82 µM [rising, full curve, poor fit] | 
